In publication PMC9239253:
Results are given in words; binding and its absence hold for the method and conditions named. In cells and extracts the contact can be indirect. Some binding calls cover weakened binding; strength is not graded here. For some assays here: Where a sequence is shown, tags or fusion partners need not be part of it.

Chains of the proteins cited; added tags and fusions are not shown.
UniProt Q9Y572: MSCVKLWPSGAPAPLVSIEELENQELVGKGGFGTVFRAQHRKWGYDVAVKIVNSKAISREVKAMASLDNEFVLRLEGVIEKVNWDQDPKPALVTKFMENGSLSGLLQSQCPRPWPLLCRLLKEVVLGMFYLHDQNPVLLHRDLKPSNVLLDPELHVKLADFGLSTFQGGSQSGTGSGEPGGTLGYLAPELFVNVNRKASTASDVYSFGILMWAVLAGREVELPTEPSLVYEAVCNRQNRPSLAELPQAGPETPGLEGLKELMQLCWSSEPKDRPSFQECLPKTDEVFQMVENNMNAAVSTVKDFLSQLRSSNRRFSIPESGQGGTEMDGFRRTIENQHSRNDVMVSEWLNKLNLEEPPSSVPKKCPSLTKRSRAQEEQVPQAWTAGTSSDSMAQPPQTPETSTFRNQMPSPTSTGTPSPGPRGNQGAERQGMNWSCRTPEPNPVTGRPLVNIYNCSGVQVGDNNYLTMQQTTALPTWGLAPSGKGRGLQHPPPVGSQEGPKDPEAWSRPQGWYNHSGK

Key:
Assay in all cases: co-IP
RIPK3 = RIPK3 (UniProt Q9Y572)
SPAG9-Flag = biological target: T1, SPAG9-Flag (UniProt O60271)
T1 sequence: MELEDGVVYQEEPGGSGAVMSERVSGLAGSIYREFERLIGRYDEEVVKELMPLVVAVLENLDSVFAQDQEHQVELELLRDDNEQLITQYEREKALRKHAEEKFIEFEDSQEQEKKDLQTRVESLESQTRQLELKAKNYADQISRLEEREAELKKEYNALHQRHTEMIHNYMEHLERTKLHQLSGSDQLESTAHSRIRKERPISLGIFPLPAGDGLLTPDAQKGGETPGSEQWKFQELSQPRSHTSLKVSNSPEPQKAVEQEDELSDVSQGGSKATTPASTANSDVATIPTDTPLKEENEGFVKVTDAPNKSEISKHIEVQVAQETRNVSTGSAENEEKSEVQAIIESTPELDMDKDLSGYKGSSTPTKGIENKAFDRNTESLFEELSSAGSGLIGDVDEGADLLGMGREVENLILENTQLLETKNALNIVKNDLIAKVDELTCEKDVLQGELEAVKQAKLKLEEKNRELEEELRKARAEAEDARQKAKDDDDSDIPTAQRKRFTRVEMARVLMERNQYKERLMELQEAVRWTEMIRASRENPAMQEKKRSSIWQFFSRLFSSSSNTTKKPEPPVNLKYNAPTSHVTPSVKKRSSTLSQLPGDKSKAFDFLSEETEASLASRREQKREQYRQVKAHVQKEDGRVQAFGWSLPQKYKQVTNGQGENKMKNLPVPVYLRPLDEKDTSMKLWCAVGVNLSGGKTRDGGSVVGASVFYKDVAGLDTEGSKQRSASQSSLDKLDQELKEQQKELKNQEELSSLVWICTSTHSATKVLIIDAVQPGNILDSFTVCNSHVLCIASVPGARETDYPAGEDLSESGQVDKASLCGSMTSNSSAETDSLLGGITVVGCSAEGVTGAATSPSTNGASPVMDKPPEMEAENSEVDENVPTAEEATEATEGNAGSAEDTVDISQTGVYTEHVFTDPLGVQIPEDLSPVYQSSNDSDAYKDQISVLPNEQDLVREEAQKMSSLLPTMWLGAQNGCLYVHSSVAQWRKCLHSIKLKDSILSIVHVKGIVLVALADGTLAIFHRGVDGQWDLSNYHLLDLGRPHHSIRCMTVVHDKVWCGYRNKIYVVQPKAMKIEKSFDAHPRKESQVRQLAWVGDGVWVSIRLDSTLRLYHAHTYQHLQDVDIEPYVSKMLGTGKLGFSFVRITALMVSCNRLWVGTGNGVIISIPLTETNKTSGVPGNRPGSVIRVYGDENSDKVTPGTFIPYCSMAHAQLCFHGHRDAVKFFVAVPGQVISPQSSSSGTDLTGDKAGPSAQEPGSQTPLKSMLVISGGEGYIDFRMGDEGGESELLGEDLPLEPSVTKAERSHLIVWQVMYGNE

[1] = biological target: RIPK3 (endogenous, RAW264.7) (mouse (endogenous in RAW264.7)), Q9QZL0; settings: remark: other sources report otherwise

B1: DNA-dependent activator of interferon-regulatory factor (DAI) (protein, UniProt Q9H171 1-429)
chain: MAQAPADPGREGHLEQRILQVLTEAGSPVKLAQLVKECQAPKRELNQVLYRMKKELKVSLTSPATWCLGGTDPEGEGPAELALSSPAERPQQHAATIPETPGPQFSQQREEDIYRFLKDNGPQRALVIAQALGMRTAKDVNRDLYRMKSRHLLDMDEQSKAWTIYRPEDSGRRAKSASIIYQHNPINMICQNGPNSWISIANSEAIQIGHGNIITRQTVSREDGSAGPRHLPSMAPGDSSTWGTLVDPWGPQDIHMEQSILRRVQLGHSNEMRLHGVPSEGPAHIPPGSPPVSATAAGPEASFEARIPSPGTHPEGEAAQRIHMKSCFLEDATIGNSNKMSISPGVAGPGGVAGSGEGEPGEDAGRRPADTQSRSHFPRDIGQPITPSHSKLTPKLETMTLGNRSHKAAEGSHYVDEASHEGSWWGGGI
B1 was tested, and the binding (RIPK3) was “binds” and the binding (SPAG9-Flag) was “binds”.

B2: RIPK1 (endogenous, RAW264.7), Q60855 1-656 (protein)
chain: MQPDMSLDNIKMASSDLLEKTDLDSGGFGKVSLCYHRSHGFVILKKVYTGPNRAEYNEVLLEEGKMMHRLRHSRVVKLLGIIIEEGNYSLVMEYMEKGNLMHVLKTQIDVPLSLKGRIIVEAIEGMCYLHDKGVIHKDLKPENILVDRDFHIKIADLGVASFKTWSKLTKEKDNKQKEVSSTTKKNNGGTLYYMAPEHLNDINAKPTEKSDVYSFGIVLWAIFAKKEPYENVICTEQFVICIKSGNRPNVEEILEYCPREIISLMERCWQAIPEDRPTFLGIEEEFRPFYLSHFEEYVEEDVASLKKEYPDQSPVLQRMFSLQHDCVPLPPSRSNSEQPGSLHSSQGLQMGPVEESWFSSSPEYPQDENDRSVQAKLQEEASYHAFGIFAEKQTKPQPRQNEAYNREEERKRRVSHDPFAQQRARENIKSAGARGHSDPSTTSRGIAVQQLSWPATQTVWNNGLYNQHGFGTTGTGVWYPPNLSQMYSTYKTPVPETNIPGSTPTMPYFSGPVADDLIKYTIFNSSGIQIGNHNYMDVGLNSQPPNNTCKEESTSRHQAIFDNTTSLTDEHLNPIRENLGRQWKNCARKLGFTESQIDEIDHDYERDGLKEKVYQMLQKWLMREGTKGATVGKLAQALHQCCRIDLLNHLIRASQS
For B2, the binding [1] was “binds”.

B3: DAI-TurboID (protein, UniProt Q9H171 1-429)
chain: B1 chain
B3 was tested, and the binding (RIPK3) was “binds”.

B4: TurboID-DAI (protein, UniProt Q9H171 1-429)
chain: B1 chain
B4 was tested, and the binding (RIPK3) was “binds”.
